The record followed here is publication PMC5458519, “Splicing modulators act at the branch point adenosine binding pocket defined by the PHF5A–SF3b complex” (Nature Communications, 2017).

Chains of the proteins cited; added tags and fusions are not shown. Residues count along the entry.
UniProt O75533, residues 454-1304: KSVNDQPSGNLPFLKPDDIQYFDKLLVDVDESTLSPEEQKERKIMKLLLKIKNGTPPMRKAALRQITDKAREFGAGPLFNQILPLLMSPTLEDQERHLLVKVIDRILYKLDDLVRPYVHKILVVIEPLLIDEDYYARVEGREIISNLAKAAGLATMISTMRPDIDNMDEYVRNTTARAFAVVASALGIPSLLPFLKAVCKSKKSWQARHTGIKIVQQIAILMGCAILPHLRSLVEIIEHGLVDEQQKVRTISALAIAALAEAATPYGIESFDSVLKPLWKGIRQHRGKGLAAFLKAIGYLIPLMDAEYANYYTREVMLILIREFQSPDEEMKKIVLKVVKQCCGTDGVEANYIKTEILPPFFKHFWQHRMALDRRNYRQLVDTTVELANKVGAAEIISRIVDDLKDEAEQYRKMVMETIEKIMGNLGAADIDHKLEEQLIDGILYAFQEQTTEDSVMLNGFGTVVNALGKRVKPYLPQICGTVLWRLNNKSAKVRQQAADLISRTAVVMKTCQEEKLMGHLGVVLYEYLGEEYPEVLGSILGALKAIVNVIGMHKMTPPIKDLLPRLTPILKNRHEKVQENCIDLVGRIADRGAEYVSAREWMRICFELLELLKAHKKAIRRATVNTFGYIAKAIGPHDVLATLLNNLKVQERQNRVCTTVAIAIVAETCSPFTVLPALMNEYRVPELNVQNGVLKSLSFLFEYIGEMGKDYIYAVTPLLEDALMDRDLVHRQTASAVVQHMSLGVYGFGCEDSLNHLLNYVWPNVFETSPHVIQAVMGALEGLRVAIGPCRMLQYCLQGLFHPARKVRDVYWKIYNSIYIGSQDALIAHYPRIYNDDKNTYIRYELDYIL
UniProt Q15393: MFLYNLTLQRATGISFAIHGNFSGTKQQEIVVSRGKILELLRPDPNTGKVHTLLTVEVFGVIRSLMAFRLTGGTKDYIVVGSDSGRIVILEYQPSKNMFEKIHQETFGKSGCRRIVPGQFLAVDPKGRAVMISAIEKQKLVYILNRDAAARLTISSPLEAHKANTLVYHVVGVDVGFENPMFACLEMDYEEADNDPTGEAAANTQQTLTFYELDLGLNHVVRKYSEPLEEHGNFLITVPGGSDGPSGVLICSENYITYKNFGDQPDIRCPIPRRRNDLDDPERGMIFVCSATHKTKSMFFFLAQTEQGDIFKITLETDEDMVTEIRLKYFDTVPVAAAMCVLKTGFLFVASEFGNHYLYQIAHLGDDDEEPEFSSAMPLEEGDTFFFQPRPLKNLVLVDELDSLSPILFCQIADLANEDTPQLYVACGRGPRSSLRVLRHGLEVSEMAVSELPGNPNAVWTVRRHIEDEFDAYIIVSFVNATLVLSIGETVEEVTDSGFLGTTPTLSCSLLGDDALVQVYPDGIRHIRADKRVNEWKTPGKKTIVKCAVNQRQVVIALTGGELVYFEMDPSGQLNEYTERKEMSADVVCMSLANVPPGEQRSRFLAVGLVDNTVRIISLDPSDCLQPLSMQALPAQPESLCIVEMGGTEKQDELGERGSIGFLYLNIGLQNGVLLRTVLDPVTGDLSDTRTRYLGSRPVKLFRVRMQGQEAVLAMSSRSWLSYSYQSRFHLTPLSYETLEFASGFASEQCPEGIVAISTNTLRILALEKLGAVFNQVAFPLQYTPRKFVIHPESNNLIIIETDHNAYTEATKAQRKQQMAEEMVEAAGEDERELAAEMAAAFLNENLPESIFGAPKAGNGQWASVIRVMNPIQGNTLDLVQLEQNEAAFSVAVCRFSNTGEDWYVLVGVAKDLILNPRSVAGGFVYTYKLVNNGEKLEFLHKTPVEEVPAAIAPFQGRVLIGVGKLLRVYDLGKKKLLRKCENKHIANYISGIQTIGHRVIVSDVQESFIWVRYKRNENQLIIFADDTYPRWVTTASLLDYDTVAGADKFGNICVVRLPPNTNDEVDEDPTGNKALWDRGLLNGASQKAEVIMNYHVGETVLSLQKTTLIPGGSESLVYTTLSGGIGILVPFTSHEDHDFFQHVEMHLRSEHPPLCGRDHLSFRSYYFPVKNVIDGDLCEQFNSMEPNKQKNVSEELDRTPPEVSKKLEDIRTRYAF

For this assay, the target named is SF3B1 HEAT repeat domain (residues 454-1,304), N-terminal FLAG tag (human) (UniProt O75533). Nature of the assay: co-purification of co-expressed proteins (nickel beads, FLAG beads, gel filtration); four baculoviruses co-infected into SF21 cells; lysis in 40 mM HEPES pH 8.0, 500 mM NaCl, 10% glycerol, 1 mM TCEP; batch purification on nickel beads and FLAG beads, then Superdex 200 in 20 mM HEPES pH 8.0, 300 mM NaCl, 10% glycerol, 1 mM TCEP. A general note: SEC sorts molecules by how far they enter the pores of the column.

No constants are given. Whether binding was seen depends on the method and setting. Some results given as binding are weak or reduced against the parent protein; the word gives no strength.

For “SF3B3, full-length, N-terminal His-tag (from UniProt Q15393 1-1217)”, the binding result is reported as “binds”.
